Test results from paper PMC8933506.

Molecular target: K258R mutant HIV-1 IN (integrase), N-terminally HA-tagged (HIV-1)
Test: affinity purification with mass spectrometry; HA-IN (WT or K258R) expressed 24 h in HEK293T; NP-40 lysis buffer (20 mM Tris HCl pH 8, 137 mM NaCl, 2 mM EDTA, 1% NP-40); HA-coated magnetic beads overnight at 4 °C; hits against an empty HA-vector control

B1: NCAPD3 (protein, UniProt P42695 1-1498)
chain: MVALRGLGSGLQPWCPLDLRLEWVDTVWELDFTETEPLDPSIEAEIIETGLAAFTKLYESLLPFATGEHGSMESIWTFFIENNVSHSTLVALFYHFVQIVHKKNVSVQYREYGLHAAGLYFLLLEVPGSVANQVFHPVMFDKCIQTLKKSWPQESNLNRKRKKEQPKSSQANPGRHRKRGKPPRREDIEMDEIIEEQEDENICFSARDLSQIRNAIFHLLKNFLRLLPKFSLKEKPQCVQNCIEVFVSLTNFEPVLHECHVTQARALNQAKYIPELAYYGLYLLCSPIHGEGDKVISCVFHQMLSVILMLEVGEGSHRAPLAVTSQVINCRNQAVQFISALVDELKESIFPVVRILLQHICAKVVDKSEYRTFAAQSLVQLLSKLPCGEYAMFIAWLYKYSRSSKIPHRVFTLDVVLALLELPEREVDNTLSLEHQKFLKHKFLVQEIMFDRCLDKAPTVRSKALSSFAHCLELTVTSASESILELLINSPTFSVIESHPGTLLRNSSAFSYQRQTSNRSEPSGEINIDSSGETVGSGERCVMAMLRRRIRDEKTNVRKSALQVLVSILKHCDVSGMKEDLWILQDQCRDPAVSVRKQALQSLTELLMAQPRCVQIQKAWLRGVVPVVMDCESTVQEKALEFLDQLLLQNIRHHSHFHSGDDSQVLAWALLTLLTTESQELSRYLNKAFHIWSKKEKFSPTFINNVISHTGTEHSAPAWMLLSKIAGSSPRLDYSRIIQSWEKISSQQNPNSNTLGHILCVIGHIAKHLPKSTRDKVTDAVKCKLNGFQWSLEVISSAVDALQRLCRASAETPAEEQELLTQVCGDVLSTCEHRLSNIVLKENGTGNMDEDLLVKYIFTLGDIAQLCPARVEKRIFLLIQSVLASSADADHSPSSQGSSEAPASQPPPQVRGSVMPSVIRAHAIITLGKLCLQHEDLAKKSIPALVRELEVCEDVAVRNNVIIVMCDLCIRYTIMVDKYIPNISMCLKDSDPFIRKQTLILLTNLLQEEFVKWKGSLFFRFVSTLIDSHPDIASFGEFCLAHLLLKRNPVMFFQHFIECIFHFNNYEKHEKYNKFPQSEREKRLFSLKGKSNKERRMKIYKFLLEHFTDEQRFNITSKICLSILACFADGILPLDLDASELLSDTFEVLSSKEIKLLAMRSKPDKDLLMEEDDMALANVVMQEAQKKLISQVQKRNFIENIIPIIISLKTVLEKNKIPALRELMHYLREVMQDYRDELKDFFAVDKQLASELEYDMKKYQEQLVQEQELAKHADVAGTAGGAEVAPVAQVALCLETVPVPAGQENPAMSPAVSQPCTPRASAGHVAVSSPTPETGPLQRLLPKARPMSLSTIAILNSVKKAVESKSRHRSRSLGVLPFTLNSGSPEKTCSQVSSYSLEQESNGEIEHVTKRAISTPEKSISDVTFGAGVSYIGTPRTPSSAKEKIEGRSQGNDILCLSLPDKPPPQPQQWNVRSPARNKDTPACSRRSLRKTPLKTAN
**Q.** For B1, which binding is on record?
**A.** binds

These are yes or no findings as the source states them, for the method shown. In cells and extracts the contact can be indirect. Here binding means that the protein was enriched with, or labelled near, the bait; the list need not be complete.
